± gives the standard deviation. Only a part is listed here, and it is no random draw. Many of these values have a large error.
tested on: EfPiwi piRISC loaded with piRNA #1 (26 nt); experiment: pre-steady-state target cleavage rate (min^-1); guide: piRNA #1 5'p-UGAGGUAGUAGGUUGUAUAGUAUCCA; MIWI and MILI are mouse PIWI proteins and EfPiwi is from a freshwater sponge; tags in brackets are library labels; higher = faster piRNA-guided slicing of the target; settings: auxiliary factor: 500 nM Ephydatia muelleri Gtsf1
In short: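 Sequencing of uncleaved targets, normalised to depth and to weakly complementary targets, was the readout of this Cleave-'n-Seq assay. A transcribed, DNA-blocked target RNA library (0.1 nM) was mixed with 1 nM active affinity-purified piRISC carrying one synthetic guide, with or without 500 nM GTSF1 partner protein, in HEPES–potassium acetate buffer at 33 °C for 0–8 or 0–960 min. Three trials were pooled, k3 was capped at 0.0001 min^-1, and a burst-and-steady-state fit gave the pre-steady-state cleavage rate.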

Sequence	pre-steady-state target cleavage rate
GGAGACCUAUGAUAUGUUCCUACUACCUACA	0.000101 ± 0.025
GGAGAGGAUAUAUACAACCUACUACCUCA	0.00764 ± 0.0042
GGAGACCUAUCUAUACAACCUACGACCUCA	0.0023 ± 0.0047
GGAGACCUAACUAUACAACCUACUUACCUCA	0.00322 ± 0.0039
GGAGACCUAUCUAUACUACCUACAACCUCA	0.000222 ± 0.011
GGAGACCUUACUAUACACCCUACUACCUCA	0.00862 ± 0.0036
GGAGAGGAUACUAUACAACCUACUACCACA	0.00641 ± 0.0021
GGAGAGGUUACUAUACAACCUACAACCUCA	0.00313 ± 0.0018
GGAGACCUAUGAUAUGUUGCUAGCUACCUCA	0.000894 ± 0.0046
GGAGUGGAUACAAUACAACCUAGUACCUCA	0.00305 ± 0.0021
GGAGUGGAUACUAUACAACCUUCUACCACA	0.00272 ± 0.0016
GGAGACCCUACUAUACAACCUACUACCUCA	0.153 ± 0.051
GGAGACGAUACUAUACAACCUAGUUCCUCA	0.00305 ± 0.0018
GGAGACGAUAGUAUACAACCUACUACCUCA	0.00758 ± 0.0036
GGAGACCUAACUAUGCAACCUACUACCUCA	0.00447 ± 0.0039
GGAGACCUAACUAUUCAACGUACUACCUCA	0.00128 ± 0.0039
GGAGACGAUACUAAACAACCUACUACCUCA	0.0292 ± 0.012
GGAGACCUUACUAUACAACCUACUAGCACA	0.00206 ± 0.0025
GGAGACCUAUGAUAUGUUGGUACUACGACA	0.00015 ± 0.016
GGAGUGGAUAGUAAACAACCUACUACCUCA	0.00331 ± 0.0045
GGAGACCUUACUAUACUACCAACUACCUCA	0.000257 ± 0.011
GGAGUGGAUAGUAUACAACCUACAACCUCA	0.00254 ± 0.0017
GGAGACCAAACUAUACUACCUACUACCUCA	0.00362 ± 0.0032
GGAGACCUAUGUAUACAACCUACUAACCUCA	0.000663 ± 0.011

For reference, some entries already given.
Sequence	pre-steady-state target cleavage rate
GGAGACCUUACUAUACAACCUACUAGCACA	0.00206 ± 0.0025
GGAGACCUAUGAUAUGUUGGUACUACGACA	0.00015 ± 0.016
GGAGUGGAUAGUAAACAACCUACUACCUCA	0.00331 ± 0.0045
GGAGACCUUACUAUACUACCAACUACCUCA	0.000257 ± 0.011
GGAGUGGAUAGUAUACAACCUACAACCUCA	0.00254 ± 0.0017
GGAGACCAAACUAUACUACCUACUACCUCA	0.00362 ± 0.0032

Source: the supplement of paper PMC10338343
